Reference: the supplement of paper PMC10849652
The other results are listed elsewhere or left out.

Chains of the proteins cited; added tags and fusions are not shown. Lines headed by an entry give the natural chain unless they say otherwise; changes in a name come on top.
UniProt Q9Y484: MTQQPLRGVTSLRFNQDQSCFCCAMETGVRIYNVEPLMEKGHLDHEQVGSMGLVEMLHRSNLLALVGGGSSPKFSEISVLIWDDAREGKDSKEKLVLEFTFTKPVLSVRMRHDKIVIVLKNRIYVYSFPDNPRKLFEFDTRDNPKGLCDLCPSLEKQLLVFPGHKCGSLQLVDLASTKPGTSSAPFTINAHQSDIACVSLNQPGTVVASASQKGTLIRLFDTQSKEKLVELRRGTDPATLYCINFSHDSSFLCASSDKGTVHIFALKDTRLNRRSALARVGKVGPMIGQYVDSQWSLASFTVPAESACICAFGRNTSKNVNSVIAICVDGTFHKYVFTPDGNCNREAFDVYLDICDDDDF
UniProt Q86VN1: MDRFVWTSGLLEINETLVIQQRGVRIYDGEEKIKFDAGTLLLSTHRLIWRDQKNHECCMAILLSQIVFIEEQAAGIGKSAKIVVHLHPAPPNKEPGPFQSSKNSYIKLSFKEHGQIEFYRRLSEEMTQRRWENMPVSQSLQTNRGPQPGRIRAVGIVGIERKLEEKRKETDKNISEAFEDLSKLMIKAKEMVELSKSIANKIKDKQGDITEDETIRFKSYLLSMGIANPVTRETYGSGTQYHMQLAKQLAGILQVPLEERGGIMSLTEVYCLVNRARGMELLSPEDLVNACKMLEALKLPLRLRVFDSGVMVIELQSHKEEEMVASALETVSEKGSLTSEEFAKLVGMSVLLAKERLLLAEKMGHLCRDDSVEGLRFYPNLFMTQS
UniProt Q8TBY9: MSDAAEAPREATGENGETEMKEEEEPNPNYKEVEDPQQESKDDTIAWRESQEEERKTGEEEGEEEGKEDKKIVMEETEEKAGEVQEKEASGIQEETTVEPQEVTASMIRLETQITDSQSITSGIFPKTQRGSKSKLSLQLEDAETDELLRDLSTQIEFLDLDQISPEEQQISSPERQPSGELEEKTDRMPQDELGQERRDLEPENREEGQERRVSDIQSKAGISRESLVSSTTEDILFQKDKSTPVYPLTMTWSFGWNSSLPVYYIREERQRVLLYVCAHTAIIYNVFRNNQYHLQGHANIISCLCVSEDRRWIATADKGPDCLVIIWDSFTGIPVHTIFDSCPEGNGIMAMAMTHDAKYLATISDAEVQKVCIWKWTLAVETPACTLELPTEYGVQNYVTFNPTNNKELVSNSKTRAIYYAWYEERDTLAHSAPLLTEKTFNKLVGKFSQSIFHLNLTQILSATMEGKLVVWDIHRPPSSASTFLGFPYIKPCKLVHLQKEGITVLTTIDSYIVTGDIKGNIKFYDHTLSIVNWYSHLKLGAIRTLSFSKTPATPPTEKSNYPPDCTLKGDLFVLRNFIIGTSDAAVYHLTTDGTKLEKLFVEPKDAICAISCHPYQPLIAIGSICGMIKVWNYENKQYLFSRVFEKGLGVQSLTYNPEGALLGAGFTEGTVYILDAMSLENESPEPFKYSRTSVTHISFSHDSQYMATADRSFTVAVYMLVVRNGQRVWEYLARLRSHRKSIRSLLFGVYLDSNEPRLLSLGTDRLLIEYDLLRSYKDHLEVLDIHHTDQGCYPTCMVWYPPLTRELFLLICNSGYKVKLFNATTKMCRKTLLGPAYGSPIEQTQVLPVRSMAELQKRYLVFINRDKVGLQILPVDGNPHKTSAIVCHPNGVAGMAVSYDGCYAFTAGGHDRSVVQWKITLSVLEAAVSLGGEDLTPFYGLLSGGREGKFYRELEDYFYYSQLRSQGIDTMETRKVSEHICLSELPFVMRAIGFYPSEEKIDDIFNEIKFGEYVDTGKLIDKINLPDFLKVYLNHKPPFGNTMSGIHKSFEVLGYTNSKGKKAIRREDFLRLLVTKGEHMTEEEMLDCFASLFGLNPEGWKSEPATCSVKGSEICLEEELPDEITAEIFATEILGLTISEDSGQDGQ
UniProt Q96JG6: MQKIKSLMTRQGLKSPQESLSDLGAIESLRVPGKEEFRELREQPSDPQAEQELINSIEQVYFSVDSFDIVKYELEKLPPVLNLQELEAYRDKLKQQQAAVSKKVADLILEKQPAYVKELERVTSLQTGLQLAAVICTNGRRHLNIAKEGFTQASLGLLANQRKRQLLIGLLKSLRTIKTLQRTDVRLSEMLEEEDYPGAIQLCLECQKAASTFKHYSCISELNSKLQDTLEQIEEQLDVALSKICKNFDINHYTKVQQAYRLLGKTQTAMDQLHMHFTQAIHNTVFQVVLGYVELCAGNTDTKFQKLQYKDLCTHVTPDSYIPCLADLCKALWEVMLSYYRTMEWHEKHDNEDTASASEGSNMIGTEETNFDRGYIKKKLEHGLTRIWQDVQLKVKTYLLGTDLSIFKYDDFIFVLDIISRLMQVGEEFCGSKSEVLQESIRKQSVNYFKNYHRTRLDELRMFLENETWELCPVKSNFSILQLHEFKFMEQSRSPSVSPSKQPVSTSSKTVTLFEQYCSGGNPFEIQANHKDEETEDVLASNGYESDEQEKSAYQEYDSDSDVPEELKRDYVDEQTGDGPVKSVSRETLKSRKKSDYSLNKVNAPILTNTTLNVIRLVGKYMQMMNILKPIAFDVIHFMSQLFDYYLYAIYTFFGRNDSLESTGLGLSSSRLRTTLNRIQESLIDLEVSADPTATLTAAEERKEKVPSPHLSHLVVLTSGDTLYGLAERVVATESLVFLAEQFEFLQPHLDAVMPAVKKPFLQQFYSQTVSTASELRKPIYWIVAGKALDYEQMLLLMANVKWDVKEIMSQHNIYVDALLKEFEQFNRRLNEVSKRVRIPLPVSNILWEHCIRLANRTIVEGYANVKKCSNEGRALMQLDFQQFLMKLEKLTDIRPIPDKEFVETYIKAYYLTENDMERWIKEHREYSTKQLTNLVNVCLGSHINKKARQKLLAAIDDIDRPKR
UniProt Q502W6: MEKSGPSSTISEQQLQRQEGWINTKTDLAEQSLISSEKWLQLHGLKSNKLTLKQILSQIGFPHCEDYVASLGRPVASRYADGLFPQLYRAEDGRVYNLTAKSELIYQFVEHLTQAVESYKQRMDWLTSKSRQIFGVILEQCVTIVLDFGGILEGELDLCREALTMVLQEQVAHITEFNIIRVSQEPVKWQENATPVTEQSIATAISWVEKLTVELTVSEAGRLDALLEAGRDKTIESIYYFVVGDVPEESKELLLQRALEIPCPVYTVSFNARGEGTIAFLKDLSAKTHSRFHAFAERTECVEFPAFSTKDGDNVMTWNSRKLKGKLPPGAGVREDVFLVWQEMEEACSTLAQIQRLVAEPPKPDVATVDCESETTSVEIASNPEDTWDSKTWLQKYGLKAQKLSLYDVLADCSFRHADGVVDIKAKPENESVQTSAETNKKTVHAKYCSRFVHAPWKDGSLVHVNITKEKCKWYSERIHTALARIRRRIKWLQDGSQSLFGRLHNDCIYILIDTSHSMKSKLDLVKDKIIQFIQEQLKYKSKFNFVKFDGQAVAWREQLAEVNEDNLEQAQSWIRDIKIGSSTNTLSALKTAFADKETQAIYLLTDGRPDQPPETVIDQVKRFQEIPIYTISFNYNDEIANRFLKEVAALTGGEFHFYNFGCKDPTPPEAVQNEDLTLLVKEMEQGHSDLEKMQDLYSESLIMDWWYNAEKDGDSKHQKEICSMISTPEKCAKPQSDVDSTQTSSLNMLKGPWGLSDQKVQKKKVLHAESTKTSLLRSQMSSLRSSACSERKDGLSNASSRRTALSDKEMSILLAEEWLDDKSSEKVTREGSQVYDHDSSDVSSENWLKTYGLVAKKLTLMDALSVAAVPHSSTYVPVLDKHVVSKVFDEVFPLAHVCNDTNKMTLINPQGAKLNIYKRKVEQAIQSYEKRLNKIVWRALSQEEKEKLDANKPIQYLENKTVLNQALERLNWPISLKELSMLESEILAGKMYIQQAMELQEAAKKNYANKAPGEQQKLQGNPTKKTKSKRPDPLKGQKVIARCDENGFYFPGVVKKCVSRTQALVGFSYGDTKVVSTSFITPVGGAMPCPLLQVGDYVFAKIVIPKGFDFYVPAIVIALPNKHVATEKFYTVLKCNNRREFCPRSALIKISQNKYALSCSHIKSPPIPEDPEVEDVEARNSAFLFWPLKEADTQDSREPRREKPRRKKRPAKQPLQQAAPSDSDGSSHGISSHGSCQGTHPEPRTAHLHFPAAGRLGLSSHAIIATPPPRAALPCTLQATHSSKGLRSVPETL
UniProt Q96EX3: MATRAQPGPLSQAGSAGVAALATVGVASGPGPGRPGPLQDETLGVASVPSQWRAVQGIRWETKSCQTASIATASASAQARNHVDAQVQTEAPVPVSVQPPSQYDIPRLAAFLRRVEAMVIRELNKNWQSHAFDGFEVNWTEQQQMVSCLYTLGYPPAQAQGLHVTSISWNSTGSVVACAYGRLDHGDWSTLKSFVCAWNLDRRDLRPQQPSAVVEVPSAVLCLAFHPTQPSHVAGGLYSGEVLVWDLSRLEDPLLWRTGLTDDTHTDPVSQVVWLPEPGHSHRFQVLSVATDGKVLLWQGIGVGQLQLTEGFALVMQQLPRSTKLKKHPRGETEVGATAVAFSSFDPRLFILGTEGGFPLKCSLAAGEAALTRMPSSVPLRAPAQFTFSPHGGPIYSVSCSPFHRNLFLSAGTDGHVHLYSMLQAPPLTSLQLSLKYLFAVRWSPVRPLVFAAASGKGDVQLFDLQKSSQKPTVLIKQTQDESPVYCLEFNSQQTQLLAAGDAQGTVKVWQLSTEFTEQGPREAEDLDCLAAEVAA
UniProt P49754: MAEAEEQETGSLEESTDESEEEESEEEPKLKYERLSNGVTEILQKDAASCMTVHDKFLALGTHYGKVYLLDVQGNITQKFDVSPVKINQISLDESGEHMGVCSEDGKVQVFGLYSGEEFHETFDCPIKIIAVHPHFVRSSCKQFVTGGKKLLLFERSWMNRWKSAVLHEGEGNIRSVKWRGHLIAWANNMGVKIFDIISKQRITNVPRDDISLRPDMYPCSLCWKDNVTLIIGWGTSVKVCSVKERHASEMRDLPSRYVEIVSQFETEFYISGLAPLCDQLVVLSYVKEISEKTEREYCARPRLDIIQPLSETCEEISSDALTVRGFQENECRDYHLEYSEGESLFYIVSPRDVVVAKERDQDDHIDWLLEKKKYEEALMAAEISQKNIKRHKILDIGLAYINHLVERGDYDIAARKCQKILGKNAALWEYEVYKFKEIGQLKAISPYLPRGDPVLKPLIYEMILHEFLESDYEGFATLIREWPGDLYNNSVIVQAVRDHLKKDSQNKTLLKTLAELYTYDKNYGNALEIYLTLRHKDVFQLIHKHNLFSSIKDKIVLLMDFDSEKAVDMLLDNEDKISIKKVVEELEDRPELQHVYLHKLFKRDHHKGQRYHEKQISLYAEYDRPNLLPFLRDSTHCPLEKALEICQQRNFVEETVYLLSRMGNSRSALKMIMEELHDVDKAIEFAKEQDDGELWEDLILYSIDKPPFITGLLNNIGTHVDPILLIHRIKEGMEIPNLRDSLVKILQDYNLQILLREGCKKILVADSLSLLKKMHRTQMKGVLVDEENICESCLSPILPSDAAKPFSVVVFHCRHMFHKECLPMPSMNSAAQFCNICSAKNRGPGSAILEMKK
UniProt Q9H967: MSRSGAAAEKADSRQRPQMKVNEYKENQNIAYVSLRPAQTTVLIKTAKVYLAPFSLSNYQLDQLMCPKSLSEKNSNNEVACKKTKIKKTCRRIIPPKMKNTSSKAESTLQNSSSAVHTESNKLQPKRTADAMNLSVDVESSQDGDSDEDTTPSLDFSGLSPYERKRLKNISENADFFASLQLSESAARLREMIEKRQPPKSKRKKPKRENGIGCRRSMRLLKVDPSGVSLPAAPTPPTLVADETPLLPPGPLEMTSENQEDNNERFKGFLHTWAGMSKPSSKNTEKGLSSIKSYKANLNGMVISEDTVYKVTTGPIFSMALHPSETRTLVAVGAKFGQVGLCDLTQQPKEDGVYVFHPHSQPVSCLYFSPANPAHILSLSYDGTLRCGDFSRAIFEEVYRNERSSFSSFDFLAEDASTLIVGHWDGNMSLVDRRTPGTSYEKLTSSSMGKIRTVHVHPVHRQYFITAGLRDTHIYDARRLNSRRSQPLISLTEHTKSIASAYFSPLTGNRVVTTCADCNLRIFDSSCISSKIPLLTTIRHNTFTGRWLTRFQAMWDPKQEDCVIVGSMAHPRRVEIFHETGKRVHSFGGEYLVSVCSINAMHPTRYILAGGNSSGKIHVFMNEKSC
UniProt Q6P4I2: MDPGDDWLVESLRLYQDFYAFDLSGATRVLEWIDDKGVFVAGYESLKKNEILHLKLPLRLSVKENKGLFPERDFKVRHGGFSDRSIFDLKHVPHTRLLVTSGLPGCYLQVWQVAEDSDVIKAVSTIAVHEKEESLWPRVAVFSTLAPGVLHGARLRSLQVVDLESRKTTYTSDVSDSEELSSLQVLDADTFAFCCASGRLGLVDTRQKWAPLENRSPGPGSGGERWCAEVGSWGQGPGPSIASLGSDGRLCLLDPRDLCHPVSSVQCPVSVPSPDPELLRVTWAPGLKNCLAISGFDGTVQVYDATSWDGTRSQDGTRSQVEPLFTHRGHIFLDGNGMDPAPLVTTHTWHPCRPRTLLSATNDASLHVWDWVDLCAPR

Columns and labels:
Assay in all cases: log2 fold change, soluble protein after heating vs DMSO (PISA); higher = thermal stabilisation; K562 lysate, 10 uM; active = over 0.2 and 3.5 SD of the protein, either way, in both replicates (recomputed)
[1] = compound: C1=CC=C(C=C1)[C@H](COC2=CC3=C(C=C2)NC(=O)N3)NC(=O)C4=CC=CN(C4=O)CC5=CC(=C(C=C5)F)F
Outline: (§1)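 To prepare the extract, K562 pellets were dounce-homogenised in PBS pH 7.4 with 1 mM MgCl2, giving crude material at 1 mg/mL protein. This was treated with 10 μM compound for 30 min, then heated in aliquots for 3 min over 48°C-58°C before pooling and addition of NP-40 to 0.5% at 4°C. Centrifugation at 21,000xg for 90 min left soluble protein in the supernatant, which TMTpro 16plex LC-MS/MS quantified with equalised channel sums. Results are log-two fold changes in thermal stability compared with solvent controls, from duplicates.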

[2] = compound: CC1=C(SC2=C1C(=N[C@H](C3=NN=C(N32)C)CC(=O)N)C4=CC=C(C=C4)Cl)C
Outline: as §1

[3] = compound: CC1=C2C(=CC=C1)N=C(N(C2=O)C3=CC=CC=C3C)CN4C=NC5=C(N=CN=C54)N
Outline: as §1

[4] = compound: Cc1sc2c(c1C)C(c1ccc(Cl)cc1)=N[C@@H](CC(=O)OC(C)(C)C)c1nnc(C)n1-2
Outline: as §1

[5] = compound: c1ccc([C@@H]2C[C@H]2NC2CCNCC2)cc1
Outline: as §1

Measured: log2 fold change

WDR45 isoform 2 (UniProt Q9Y484)
inactive: [1] -0.024 | [2] 0.061 | [3] 0.073 | [4] -0.018 | [5] -0.014

VPS36 (UniProt Q86VN1)
inactive: [1] 0.018 | [2] 0.024 | [3] 0.003 | [4] -0.012 | [5] -0.006

WDR66 (UniProt Q8TBY9)
inactive: [3] -0.109

VPS50 (UniProt Q96JG6)
inactive: [1] -0.04 | [2] 0.028 | [3] 0.018 | [4] 0.001 | [5] 0.05

XP32 (UniProt Q5T750)
inactive: [5] 0.304

VWA3B isoform 6 (UniProt Q502W6)
inactive: [1] -0.081 | [2] -0.109 | [4] -0.151 | [5] -0.109

WDR34 (UniProt Q96EX3)
inactive: [1] -0.044 | [2] 0.031 | [3] -0.007 | [4] -0.023 | [5] 0.029

VPS41 (UniProt P49754)
inactive: [1] -0.046 | [2] 0.005 | [3] -0.016 | [4] 0.067 | [5] 0.13

Quoted from the results shown (2 entries):
VPS50 (UniProt Q96JG6)
inactive: [1] -0.04 | [2] 0.028 | [3] 0.018 | [4] 0.001 | [5] 0.05

XP32 (UniProt Q5T750)
inactive: [5] 0.304

(list continues)

WDR55 (UniProt Q9H6Y2)
inactive: [1] -0.167 | [2] 0.025 | [3] -0.006 | [4] -0.034 | [5] -0.004

WDR76 (UniProt Q9H967)
inactive: [4] -0.167

WDR73 (UniProt Q6P4I2)
inactive: [1] 0.017 | [2] 0.056 | [3] -0.011 | [4] -0.034 | [5] 0.05
